# Laboratory results reported in PubChem BioAssay AID540275 (National Center for Advancing Translational Sciences (NCATS), 2011).
# Protein sequences, listed by entry. Tags and fused reporters are not part of them.
# UniProt Q8NER1, whole entry, looked up: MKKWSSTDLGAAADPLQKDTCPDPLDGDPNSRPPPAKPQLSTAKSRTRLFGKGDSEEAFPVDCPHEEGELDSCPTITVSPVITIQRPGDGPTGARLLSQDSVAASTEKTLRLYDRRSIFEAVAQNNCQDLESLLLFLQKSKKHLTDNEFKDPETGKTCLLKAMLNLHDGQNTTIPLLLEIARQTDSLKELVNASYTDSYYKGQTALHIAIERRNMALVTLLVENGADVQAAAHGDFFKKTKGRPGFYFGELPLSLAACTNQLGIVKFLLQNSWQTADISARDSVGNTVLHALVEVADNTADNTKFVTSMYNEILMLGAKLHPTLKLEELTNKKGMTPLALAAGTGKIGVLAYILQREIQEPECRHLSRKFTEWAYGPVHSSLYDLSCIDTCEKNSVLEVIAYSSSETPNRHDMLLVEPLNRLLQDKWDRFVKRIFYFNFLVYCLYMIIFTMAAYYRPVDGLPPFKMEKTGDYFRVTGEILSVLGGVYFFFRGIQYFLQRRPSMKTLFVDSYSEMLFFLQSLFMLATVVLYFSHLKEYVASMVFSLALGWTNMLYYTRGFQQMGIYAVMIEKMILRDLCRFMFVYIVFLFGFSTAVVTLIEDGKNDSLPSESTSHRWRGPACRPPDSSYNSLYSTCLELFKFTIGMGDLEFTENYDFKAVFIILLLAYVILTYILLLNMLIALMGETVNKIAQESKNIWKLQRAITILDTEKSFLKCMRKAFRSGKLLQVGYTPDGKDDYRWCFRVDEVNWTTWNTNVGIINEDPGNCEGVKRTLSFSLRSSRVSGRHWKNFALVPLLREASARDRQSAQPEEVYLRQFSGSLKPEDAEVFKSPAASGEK
# The whole screen tested about 320,000 compounds, of which about 620 (0.19%) were called active. This list was built around the results that the source calls inconclusive (neither active nor inactive); the mix of calls is not that of the screen. Rule as the data show it: active = activation above about 80%; inconclusive = between about 30% and that limit; inactive = weaker than that.
# Biological target: Transient receptor potential cation channel subfamily V member 1 (Homo sapiens) (UniProt Q8NER1)
# Assay: HTS Assay for Compounds that Act as Agonists of the Vanilloid Receptor 1; also: 0% is about no effect
# Conditions: TRPV1-expressing cells, Fluo-8 calcium influx, agonist mode; at 8.33 µM, active compounds read high
# Summary of the method: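 Fluo-8 calcium influx in TRPV1-expressing cells, kinetic read (ex 480/em 520 nm). Compound added and read 3 min for agonist activity, followed by capsaicin at EC20 final and 2 min further read for enhancement.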
row,SMILES,activation
1,CCc1ccc(NC(=O)c2cc(Br)ccc2Br)cc1,inconclusive: 35.6%
2,CC(C)CN1C(=O)c2ccc(NC(=O)c3cccs3)cc2C1=O,inconclusive: 65.6%
3,CC(C)(C)OC(=O)NCC12C=CC(O1)C1C(=O)N(Cc3ccccc3)C(=O)C12 (stereo unspecified),inactive: -0.861%
4,Cc1ccc(C(=O)N2CC=C(c3ccccc3)CC2)s1,inconclusive: 76.6%
5,COc1ccc(OCC(=O)Nc2ccc(N3CCN(C(=O)c4ccco4)CC3)cc2)cc1,inactive: -1.01%
6,CCOC(=O)CSc1nc2cc3c(cc2cc1C)OCO3,inactive: -3.03%
7,O=C(Nc1ccc(Cl)cc1)NC1CCCC1Cc1ccco1 (stereo unspecified),inconclusive: 48.7%
8,Cc1cc(C)n(-c2nc3ccccc3[nH]c2=O)n1,inactive: -6.93%
9,O=C(Nc1ccc(Cl)cc1)c1ccc2nsnc2c1,inconclusive: 35.9%
10,Cc1ccc(-n2ncc(C(=O)N3CCc4ccccc4C3)c2NC(=O)c2ccco2)cc1C,inconclusive: 44.4%
11,COc1cc(Cn2c(=O)oc3ccc(C)cc32)ccc1OC(C)C,inconclusive: 46.1%
12,Cc1cccc(C(=O)NCC(=O)N2CCN(S(=O)(=O)/C=C/c3ccccc3)CC2)c1,inactive: 0.659%
13,COc1ccc(OCC(=O)N2CCC3(CC2)CC(=O)c2ccccc2O3)cc1,inconclusive: 37.7%
14,Cc1cc(OCC(=O)Nc2ccncc2)c(C)cc1Br,inconclusive: 71.2%
15,CCN(C(=O)CCS(=O)(=O)c1cc2c(cc1Cl)NC(=O)CO2)c1ccccc1,inconclusive: 45.7%
16,CN1/C(=C\C(=O)c2cccs2)C(C)(C)c2ccccc21,inconclusive: 31.5%
17,Cc1cccc(N2CCN(C(=O)NCc3ccc(Cl)cc3)CC2)c1,inconclusive: 39.5%
18,CCCCNc1ccccc1C(=O)OCC(=O)Nc1ccc(S(N)(=O)=O)cc1,inconclusive: 35.3%
19,COc1ccc(-c2noc(N3CCC(C(=O)NCc4ccc(Cl)cc4)CC3)n2)cc1,inconclusive: 37.4%
20,CC(C)(C)OC(=O)N[C@H](C(=O)OC(C)(C)C)c1ccccc1,inconclusive: 36.5%
21,Cc1c(CCOC(=O)CC23CC4CC(CC(C4)C2)C3)sc[n+]1Cc1ccccc1,inactive: 2.42%
22,Cc1nn2c(c1-c1ccccc1)NC1=C(C(=O)CCC1)C2c1ccccc1 (stereo unspecified),inconclusive: 47%
23,Cc1ccc(-n2c(C)cc(C(=O)CSc3nnnn3C)c2C)cc1,inconclusive: 52.1%

# In another format: results already given.
row	SMILES	activation
10	Cc1ccc(-n2ncc(C(=O)N3CCc4ccccc4C3)c2NC(=O)c2ccco2)cc1C	inconclusive: 44.4%
11	COc1cc(Cn2c(=O)oc3ccc(C)cc32)ccc1OC(C)C	inconclusive: 46.1%
12	Cc1cccc(C(=O)NCC(=O)N2CCN(S(=O)(=O)/C=C/c3ccccc3)CC2)c1	inactive: 0.659%

# Next part.

row,SMILES,activation
1,CCCCNC(=S)Nc1ccc(C(F)(F)F)cc1,inconclusive: 70.6%
2,Cc1cc(C)cc(OCC(=O)Nc2ccc3c(c2)OCCO3)c1,inconclusive: 30.9%
3,Cc1ccc(NC(=O)c2ccc(S(=O)(=O)NCc3cccnc3)cc2)cc1C,inconclusive: 60.9%
4,COc1cccc(N2CC(NS(=O)(=O)c3cccnc3)CC2=O)c1 (stereo unspecified),inactive: 3.02%
5,CCOc1ccccc1NC(=O)c1nnn(CC(=O)Nc2ccc3c(c2)OCO3)c1N,inactive: 25.9%
6,Cc1ccc(NC(=S)NC2CCN(Cc3ccccc3)CC2)cc1,inactive: 14.3%
7,O=C1CCCN1CCCNC(=S)Nc1ccccc1,inactive: 7.13%
8,Cc1nc(NC(=O)c2cc3ccccc3o2)sc1C,inconclusive: 40.6%
9,CC(=O)Nc1ccc(S(=O)(=O)Oc2cccc(N3C(=O)C4CC=CCC4C3=O)c2)cc1 (stereo unspecified),inactive: 2.95%
10,O=C(NCc1cccc(Cl)c1)C1CCN(S(=O)(=O)c2ccc(F)cc2)CC1,inconclusive: 74.8%
11,O=C(/C=C/c1cccc([N+](=O)[O-])c1)NCCSCc1ccco1,inconclusive: 34.1%
12,O=C(NCc1ccc2c(c1)OCO2)c1ccc2c(c1)N(Cc1c(F)cccc1Cl)C(=O)c1ccccc1S2,inconclusive: 48%
13,O=C(COC(=O)c1cc(-c2ccco2)nc2ccccc12)NCc1ccccc1,inconclusive: 31.5%
14,N#Cc1ccsc1NC(=O)c1ccccn1,inactive: 10.1%
15,Cc1ccc(S(=O)(=O)ON2C(=O)c3ccccc3C2=O)c(C)c1,inactive: -1.9%
16,COc1ccc(Cl)cc1NC(=S)N1CCCC1,inconclusive: 44.6%
17,CN(C)C(=O)c1cn(-c2ccccc2)nc1-c1cccc([N+](=O)[O-])c1,inconclusive: 38.8%
18,COc1cccc(/C=c2\s/c(=C/C(=O)c3ccc(C)cc3)[nH]c2=O)c1OC,inactive: -1.07%
19,CCCOc1ccc(/C=N/Nc2cc(N3CCOCC3)ncn2)c(O)c1,inactive: 11.1%
20,CCn1cc(C(=O)NCCN(CC(C)C)CC(C)C)c(=O)c2cc(S(=O)(=O)N3CCOCC3)ccc21,inconclusive: 57.1%
21,O=C(N/N=C/c1ccc2c(c1)OCO2)c1ccc2ccccc2n1,inconclusive: 48.5%
22,COc1cccc(N2CCN(C(=O)c3ccc(CS(=O)Cc4ccc(Cl)cc4)o3)CC2)c1 (stereo unspecified),inactive: -4.08%
23,CSCCC(NS(=O)(=O)c1ccc(C)cc1)C(=O)Nc1ccc(C)cn1 (stereo unspecified),inactive: 10.6%

row,SMILES,activation
1,CCOC(=O)c1cnc2ccc(OC)cc2c1NCc1ccccc1,inconclusive: 41.8%
2,[O-]/[N+](=C\C=C\c1ccccc1)c1ccccc1,inconclusive: 41.7%
3,COc1ccc2oc(C(=O)c3ccccc3)c(N)c2c1,inactive: -0.256%
4,O=C(CSc1nc2cc(C(F)(F)F)ccc2n1Cc1ccccc1)NC1CCS(=O)(=O)C1 (stereo unspecified),inactive: 12.8%
5,O=C(CCCc1nc(-c2ccccc2)no1)Nc1cccnc1,inconclusive: 48%
6,O=c1c(/C=C(\O)c2ccc(F)cc2)nc2ccccc2n1-c1ccccc1,inconclusive: 39.4%
7,CC(=O)C(N=Nc1ccccc1)(Sc1nnc(-c2ccccc2)n1-c1ccccc1)C(C)=O,inconclusive: 47.6%
8,COc1ccc(C2Oc3ccccc3C3=C2C(c2cccs2)n2ncnc2N3)cc1 (stereo unspecified),inconclusive: 44.8%
9,Clc1c(OCCCn2ccnc2)ccc2ccccc12,inconclusive: 60.2%
10,c1ccc2c(c1)oc1c(Nc3ccc(CN4CCOCC4)cc3)ncnc12,active: 84.5%
11,Cc1oc(-c2ccccc2)nc1C(=O)Nc1nccs1,inconclusive: 36.2%
12,CCOc1ccccc1NC(=O)C(OC(=O)c1ccccc1)c1ccccc1 (stereo unspecified),inconclusive: 30%
13,COc1cc2cc(CCCOC(=O)c3ccc(Br)cc3)oc(=O)c2cc1OC,inconclusive: 36.2%
14,COc1ccc(/C(O)=C2/C(=O)C(=O)N(c3ncccn3)C2c2ccc(F)cc2)cc1 (stereo unspecified),inactive: 2.27%
15,O=C(CSc1nnc(-c2ccco2)n1Cc1ccccc1)c1ccc(F)cc1,inconclusive: 54.2%
16,Cc1nc2ccccc2cc1OCc1ccc(Cl)cc1,active: 83.4%
17,CC(=O)Nc1cccc(NC(=O)c2ccccc2OCc2ccccc2)c1,inconclusive: 49.2%
18,COCC1CCN(C(=O)c2cc(COc3ccc(C)c(C)c3)on2)C1 (stereo unspecified),inconclusive: 33.5%
19,O=C(Nc1ccncc1)c1cc(-c2ccccn2)nc2ccc(Br)cc12,inactive: 0.349%
20,CCCCn1c(SCC(=O)N2CCCc3ccccc32)nc2c1c(=O)n(C)c(=O)n2C,inconclusive: 43.5%
21,COC(=O)c1ccc(NC(=S)NC2CCCCC2)cc1,inconclusive: 56.2%
22,Cc1nc2ccccc2c(=O)n1/N=C/c1ccccc1F,inconclusive: 73.8%
23,Cc1ccc(-c2nc(-c3cccnc3)sc2CC(=O)O)cc1,inactive: -0.131%

# 2 records picked at random from those above:
row,SMILES,activation
12,CCOc1ccccc1NC(=O)C(OC(=O)c1ccccc1)c1ccccc1 (stereo unspecified),inconclusive: 30%
3,COc1ccc2oc(C(=O)c3ccccc3)c(N)c2c1,inactive: -0.256%

# Remaining list, next part

row,SMILES,activation
1,CCOc1ccc(/C=N/Nc2ccccn2)cc1,inconclusive: 77%
2,COCCCNC(=O)COc1ccc2oc3c(c2c1)CCCC3,inconclusive: 34.2%
3,C/C=C/c1ccc(OCC(=O)O)c(OC)c1,inactive: -3.38%
4,COc1ccc(CCNc2nc(-c3cccnc3)nc3ccccc23)cc1OC,active: 86%
5,COC(=O)c1[nH]c2cc(OC)ccc2c1NC(=O)CN1CCOCC1,inconclusive: 58.5%
6,COc1cc(Cl)nn(-c2ccccc2)c1=O,inactive: -5.49%
7,COc1cccc(CNn2c(-c3cccc(C)c3)nc3ccccc3c2=O)c1O,inactive: 17.2%
8,CCn1cc([N+](=O)[O-])c(C(=O)Nc2ccn(C34CC5CC(CC(C5)C3)C4)n2)n1,inconclusive: 41.2%
9,Cc1csc(NC(=O)CSc2nc3sc(C)c(C)c3c(=O)[nH]2)n1,inactive: -0.437%
10,CN(C)Cc1c(C(=O)N/N=C/c2ccc(OCc3c(F)cccc3Cl)cc2)nnn1-c1nonc1N,inactive: 3.14%
11,CC(C)c1ccc(/C=C2\SC(=S)N(CCC(=O)NCCCn3ccnc3)C2=O)cc1,inactive: -5.02%
12,Cc1cccc(NC(=O)c2ccc3c(c2)C(=O)N(Cc2cccnc2)C3=O)c1C,inconclusive: 30.2%
13,Cc1nn(-c2ccccc2)c2sc(C(=O)N(CC(=O)NC(C)(C)C)Cc3ccco3)cc12,inconclusive: 44.2%
14,COc1ccc(C(=O)Nc2ccc3c(c2)OCCO3)cc1Br,inconclusive: 45.1%
15,O=C(Nn1c(SCc2cccc([N+](=O)[O-])c2)nc2ccccc2c1=O)c1ccccc1,inconclusive: 33.8%
16,O=S1(=O)CCN2C=C(Cl)C=C(Cl)C2=N1,inactive: -0.0602%
17,Cc1ccc(Cn2nc(C)cc2C(=O)Nc2ccccc2Cl)cc1,inconclusive: 32.5%
18,C#Cc1ccc([C@@H]2C=C(C(=O)N3CCN(Cc4ccccc4)CC3)O[C@H](OCC)[C@H]2CCCO)cc1,inconclusive: 54.6%
19,O=C(N/N=C/c1cccc2ccccc12)c1ccncc1,inconclusive: 43.6%
20,Clc1ccc(C2=NN(c3ccccc3)C(c3ccco3)C2)cc1 (stereo unspecified),inactive: -8.48%
21,Clc1cccc(Cl)c1Cn1c(-c2cccnc2Cl)nc2ccccc21,inconclusive: 31%
22,CC(C)c1ccc(NC2CCCN(C(=O)CCN3Cc4ccccc4C3=O)C2)cc1 (stereo unspecified),inconclusive: 79.4%

# As entered above.
# Entry for `COc1cc(Cl)nn(-c2ccccc2)c1=O` under activation: inactive: -5.49%
# Entry for `COCCCNC(=O)COc1ccc2oc3c(c2c1)CCCC3` under activation: inconclusive: 34.2%
# Entry for `COc1cccc(CNn2c(-c3cccc(C)c3)nc3ccccc3c2=O)c1O` under activation: inactive: 17.2%
